In all, about 33,000 sequences were measured (“E-score (-0.5 to 0.5)”: median about -8e-05, highest 2% from about 0.23 on). Some of the results follow.
Each sequence was assayed against T1, Nrg2 (UniProt P38082) (assay: PBM E-score (8-mer binding enrichment) (E-score (-0.5 to 0.5)); higher = stronger / more preferred TF binding). Conditions: protein concentration: 100 nM; construct: GST-full length.
T1 sequence: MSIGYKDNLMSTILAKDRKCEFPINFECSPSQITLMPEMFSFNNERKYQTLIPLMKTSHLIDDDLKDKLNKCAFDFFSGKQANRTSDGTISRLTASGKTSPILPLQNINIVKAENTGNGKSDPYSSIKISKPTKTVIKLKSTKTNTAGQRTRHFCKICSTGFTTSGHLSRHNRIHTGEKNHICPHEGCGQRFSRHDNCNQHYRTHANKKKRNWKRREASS
How it was run: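 The E-score, a modified Wilcoxon-Mann-Whitney statistic, was computed by the Universal PBM Analysis Suite for every ungapped eight-base word pooled with its reverse complement. Scans behind it were normalised with masliner after bound GST-tagged yeast transcription factors were detected with fluorescent anti-GST. The proteins, at about 100-200 nM, had been applied to universal all-10-mer Agilent arrays made double-stranded by primer extension.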

Sequence	PBM E-score
ATTCCGCG	0.107
ACTACCGA	-0.194
GCGCCCGA	-0.0267
GTTACTTA	0.0291
AGTTTTAG	-0.0386
AAGACGCA	0.00998
CACCAGAG	-0.0636
TAGCGACA	0.00083
AAATAAGG	0.182
AGCTCCAC	-0.0768
ACACGATG	0.0457
AGGAAGAC	-0.26
GCATTAAC	0.026
ATCGGCGC	0.0976
ACGCCTCA	-0.0876
GGTATAAC	-0.0672
TCGGGGCA	0.0321
TCATCGGA	-0.0277
CCAGAAGG	-0.12
GTGCTTAA	0.0625
ATCGTCAC	0.139
TAGGATAA	0.0441

2 entries from above, in markdown:

| Sequence | PBM E-score |
| --- | --- |
| ACTACCGA | -0.194 |
| GCGCCCGA | -0.0267 |

Next part

Sequence	PBM E-score
CGCTAACC	-0.175
GACCTCCC	-0.276
ACATTTTC	0.158
ATCCTAAA	-0.245
GGACATGA	-0.12
ACTGACAA	0.147
GCAAGTCA	0.107
ACAACTAA	0.199
ACCTAATA	0.0545
ACTCGTGC	0.025
GAAGTTTA	-0.117
AGTCGGCG	-0.00183
GAGGGATC	-0.0455
GACGACTC	-0.115
CCCAACGA	-0.0538
ACCTTAGT	-0.13
CCAACGCA	0.0458
TAAGCAGA	-0.0105
AGACCTCA	-0.0584
AACCTGAC	0.124
AGGACTCA	-0.0525
CACGATCA	0.0687

Sequence	PBM E-score
CGCATGCC	0.145
ACCTGCGG	-0.0875
AGGTACTC	-0.0181
ATGGCTCA	0.0166
AATGTCCT	-0.173
AGCTGAAA	0.0993
GTAGGCCA	0.0112
CAGTGGCG	0.0347
AGATGCTC	-0.00609
ACGTGTTG	-0.157
CGTCCCAG	-0.162
CGACATAA	0.0746
GAAGTTGC	-0.173
AGCTATAC	-0.101
ACCGATGG	-0.0725
CTCGCAGC	-0.0795
GATAACAA	0.12
GATGGCCC	-0.165
GAAGACTA	0.0486
GCTACTTA	-0.0897
ATGGCGTA	-0.0674
ACTAACGG	-0.171

Sequence	PBM E-score
CGCTCGAG	0.17
AGGGTGGC	0.0781
GCGTCCCC	-0.0906
CATGGTGA	-0.0162
ACTCGCCT	0.063
GACTGAGA	-0.102
CTACTCCA	0.0521
ACCGACCT	-0.00096
CCCTAGTA	0.00391
CTCCACGC	-0.147
CTACCTAA	0.0556
GGAATGTA	0.0991
GACTCTGC	0.0281
AAAACTAC	0.152
AGCTGGAC	-0.109
AAAAGGAA	-0.0391
GGGCCAAC	-0.13
CTTTGGCA	-0.295
AACAGGAT	0.00796
CCAATGTC	-0.167
ACCGGACC	-0.13
CCCAGGGC	-0.0217

Sequence	PBM E-score
GGTCAAAA	0.0984
CATGGCTC	0.0158
CATGTGAA	0.00961
ACCAATAG	-0.169
CCTCTGCC	-0.176
AAGCACCA	-0.106
AATGCCCG	-0.0464
CGAATGTC	0.0289
AGTGCTTG	-0.0643
AACATACG	0.0129
CTCTCCTA	-0.134
ATTTGCCG	0.03
GAATAGCC	-0.107
GAAGGACC	-0.0588
AGTGGTTG	0.0225
ACGGCGTG	0.0673
CGAGTTTC	0.155
GAGGCTAC	-0.265
AATAGGCA	0.158
ATGAACAA	0.13
AACAGCGA	-0.205
AGCTGTAT	-0.146

— the supplement of paper PMC3334620
